These are yes or no findings as the source states them, for the method shown. Binding seen in cells or lysates may run through a third protein. Some entries that bind do so weakly or less than the wild type.

The chains behind the UniProt entries cited, without tags or fusion partners.
UniProt Q9H4A6: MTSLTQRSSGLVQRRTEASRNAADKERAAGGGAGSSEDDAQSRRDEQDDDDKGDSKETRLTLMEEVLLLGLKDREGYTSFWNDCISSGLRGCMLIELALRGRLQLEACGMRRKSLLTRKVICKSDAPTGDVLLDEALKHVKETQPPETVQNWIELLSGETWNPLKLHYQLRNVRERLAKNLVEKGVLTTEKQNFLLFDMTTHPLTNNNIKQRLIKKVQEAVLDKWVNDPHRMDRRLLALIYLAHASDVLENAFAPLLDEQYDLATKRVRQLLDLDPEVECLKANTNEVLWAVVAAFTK

For test [1], the target named is YFPn-GOLPH3 (Golgi phosphoprotein 3 fused to the YFP N terminal fragment) (UniProt Q9H4A6). In words: split reporter; pair-wise BiFC: proteins tagged with YFPn and YFPc stably co-expressed in HTC75 cells, YFP fluorescence by flow cytometry.
The target is the same in test [2]. Nature of the test: split reporter; genome-wide BiFC screen in living HTC75 cells: YFPn-GOLPH3 stable line infected with the pooled YFPc-tagged human ORFeome library (about 18,000 ORFs, MOI about 0.5); YFP positive cells sorted by flow cytometry for four rounds; ORFs amplified by PCR and sequenced. A general note: In flow cytometry, cells or beads pass a laser one at a time.

Test [3] deals with Flag-tagged STIP1 (human) (UniProt P31948). Nature of the test: co-IP; Flag-tagged construct transiently transfected into HEK293T cells, lysed after 48 h in NETN buffer (100 mM NaCl, 0.5% NP-40), precipitated with anti-Flag affinity agarose beads, washed four times, blotted with anti-GOLPH3.

Regarding “YFPc-tagged stress-inducible protein-1 (STIP1) (from UniProt P31948 1-543)”, the binding entry in test [1] and in test [2] was “binds” each time. “endogenous GOLPH3 (from UniProt Q9H4A6 1-298)”: the binding result in test [3] is “binds”.

The record behind these values is PMC7566044.
